Measurements: PubChem BioAssay (Tox21)
Values joined by “and” are separate entries in the source; they are usually repeats but may differ in a detail not shown here. Identical values can stand only once. For some assays here: This list holds what a sample rich in hits left over. Inconclusive results are not listed. This is a selection; strong and weak results do not stand in their true shares. Active and inactive are the calls of the source. Unless noted, calls follow the shape of the dose curve; as a rule, active = well fitted curve in the direction sought with a large enough effect in the repeat runs; inconclusive = weak or mixed curves; inactive = no such curve, though single readings can be large; an effect the other way counts as inactive or inconclusive.

The chains behind the UniProt entries cited, without tags or fusion partners. Where a name states a change or a piece, a line headed by the entry shows the natural chain unless it says otherwise.
UniProt Q14994: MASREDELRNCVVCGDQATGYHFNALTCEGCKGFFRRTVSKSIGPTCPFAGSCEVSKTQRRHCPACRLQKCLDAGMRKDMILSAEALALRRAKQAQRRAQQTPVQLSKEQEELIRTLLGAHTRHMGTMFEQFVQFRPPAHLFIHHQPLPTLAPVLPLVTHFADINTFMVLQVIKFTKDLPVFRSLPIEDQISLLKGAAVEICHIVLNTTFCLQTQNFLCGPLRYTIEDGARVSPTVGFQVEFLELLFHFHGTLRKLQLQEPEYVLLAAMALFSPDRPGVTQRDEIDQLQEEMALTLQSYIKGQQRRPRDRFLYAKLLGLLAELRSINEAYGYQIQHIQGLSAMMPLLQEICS

Key:
[1] = qHTS assay to identify small molecule antagonists of the retinoic acid receptor (RAR) signaling pathway (AID 1159552; also: nearly all actives have a fitted effect of over 50% in size); settings: C3RL4 RARE luciferase reporter, retinol-stimulated, 6 h; at 92.4 µM (top of the series)
Summary of the method: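 Luminescent RARE reporter read-out in C3RL4 cells: 6 hr co-treatment at 37 C of test compounds with retinol at 1 uM final. Cells plated overnight beforehand; luciferase reagent incubated 30 min at room temperature before reading.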

[2] = qHTS assay to identify small molecule agonists of the retinoic acid receptor (RAR) signaling pathway (AID 1159553); settings: C3RL4 RARE luciferase reporter, agonist, 6 h; at 94.8 µM (top of the series)
Summary of the method: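 C3RL4 RARE-luciferase cells were seeded at 1,000/well and grown overnight at 37 C, then exposed to compounds for 6 hr at 37 C, 5% CO2. Luciferase reagent was added and luminescence was read after 30 min at room temperature.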

[3] = qHTS assay to identify small molecule agonists of the constitutive androstane receptor (CAR) signaling pathway - cell viability counter screen (AID 1224836); settings: HepG2-CYP2B6-hCAR viability, CellTiter-Fluor, 23 h; at 92.4 µM (top of the series); PK11195 added to every well; also: nearly all actives have a fitted effect of over 45% in size
Summary of the method: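 Cell viability multiplexed with the CAR agonist screen: CellTiter-Fluor fluorescence after 23 hr at 37 C. HepG2-CYP2B6-hCAR cells got compounds at 15 concentrations with PK11195 at 0.75 uM final.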

[4] = qHTS assay to identify small molecule antagonists of the constitutive androstane receptor (CAR) signaling pathway - cell viability counter screen (AID 1224837); settings: HepG2-CYP2B6-hCAR viability, CellTiter-Fluor, 23 h; at 92.4 µM (top of the series); co-treated with 50 nM CITCO; also: nearly all actives have a fitted effect of over 45% in size
Summary of the method: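 HepG2 cells stably carrying hCAR and CYP2B6-2.2kb reporter, stimulated with 50 nM CITCO and compounds at 15 concentrations for 23 h at 37 C. Viability measured by CellTiter-Fluor fluorescence.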

[5] = target: Nuclear receptor subfamily 1 group I member 3 (Homo sapiens) (UniProt Q14994); assay: qHTS assay to identify small molecule antagonists of the constitutive androstane receptor (CAR) signaling pathway (AID 1224838); settings: HepG2-CYP2B6-hCAR luciferase, CITCO-stimulated, 24 h; at 92.4 µM (top of the series); also: nearly all actives have a fitted effect of over 40% in size
Summary of the method: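 HepG2 cells stably carrying hCAR and a CYP2B6-2.2kb luciferase reporter, seeded 4 hrs before compound (15 concentrations). Stimulated with 50 nM CITCO for 24 hr at 37 C. ONE-Glo luminescence read after 30 min at room temperature.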

[6] = qHTS assay to identify small molecule agonists of the hypoxia (HIF-1) signaling pathway - cell viability counter screen (AID 1224844; calls by dose curve; also: nearly all actives have a fitted effect of over 50% in size); settings: HRE-bla ME-180 viability, CellTiter-Glo luminescence, 17 h; at 76.8 µM (top of the series)
Summary of the method: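 HRE-bla ME-180 cells, 2,000/well in 0.5% dialyzed FBS medium, treated 17 h at 37C with compounds. Viability read in the same wells as the bla reporter, by CellTiter-Glo luminescence after 30 min at room temperature.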

[7] = qHTS assay to identify small molecule agonists of H2AX - cell viability counter screen (AID 1224847; calls by dose curve;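 also: wild-type CHO-K1 cells; top concentration of the series differs between compounds; nearly all actives have a fitted effect of over 30% in size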)
Summary of the method: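 Counter-screen for viability: CellTiter-Glo ATP luminescence read after 3 h compound treatment (15-point titration, 0.76% DMSO final) of CHO-K1 cells at 37C, with 30 min room-temperature reagent incubation.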

[8] = qHTS RealTime-Glo MT Cell Viability Assay in HepG2 cells - 24 hour (AID 1224867); settings: RealTime-Glo luminescence, at 76.8 µM (top of the series); also: nearly all actives have a fitted effect of over 50% in size
Summary of the method: (§1)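 Tox21 10K library screened in qHTS format on HepG2 cells carrying RealTime-Glo reagents. Compounds were added after a 5 h preincubation, and the luminescent signal from continuous culture was measured repeatedly during 40 h treatment.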

[9] = qHTS RealTime-Glo MT Cell Viability Assay in HEK293 cells - 32 hour (AID 1224868); settings: RealTime-Glo luminescence, at 76.8 µM (top of the series); also: top concentration of the series differs between compounds; nearly all actives have a fitted effect of over 50% in size
Summary of the method: (§2)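 Luminescence generated by NanoLuc from substrate produced by living HEK293 cells served as the viability signal. Each value reflects the reading at its stated time point during continuous 40 h compound exposure at 37 C.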

[10] = qHTS RealTime-Glo MT Cell Viability Assay in HepG2 cells - 40 hour (AID 1224870); settings: RealTime-Glo luminescence, at 76.8 µM (top of the series); also: nearly all actives have a fitted effect of over 50% in size
Summary of the method: (§3)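 Real-time viability: cells seeded at 600 per well together with NanoLuc and cell-permeant prosubstrate, compounds added after 5 h incubation. Luminescence tracked at 0, 8, 16, 24, 32 and 40 h of exposure.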

[11] = qHTS RealTime-Glo MT Cell Viability Assay in HEK293 cells - 16 hour (AID 1224872); settings: RealTime-Glo luminescence, at 76.8 µM (top of the series)
Summary of the method: as §2

[12] = qHTS RealTime-Glo MT Cell Viability Assay in HepG2 cells - 8 hour (AID 1224873); settings: RealTime-Glo luminescence, at 76.8 µM (top of the series); also: nearly all actives have a fitted effect of over 55% in size
Summary of the method: as §3

[13] = qHTS RealTime-Glo MT Cell Viability Assay in HepG2 cells - 32 hour (AID 1224877); settings: RealTime-Glo luminescence, at 76.8 µM (top of the series); also: nearly all actives have a fitted effect of over 55% in size
Summary of the method: as §1

[14] = qHTS RealTime-Glo MT Cell Viability Assay in HepG2 cells - 16 hour (AID 1224885); settings: RealTime-Glo luminescence, at 76.8 µM (top of the series); also: nearly all actives have a fitted effect of over 50% in size
Summary of the method: as §1

[15] = qHTS RealTime-Glo MT Cell Viability Assay in HEK293 cells - 24 hour (AID 1224886); settings: RealTime-Glo luminescence, at 76.8 µM (top of the series)
Summary of the method: as §2

[16] = qHTS RealTime-Glo MT Cell Viability Assay in HEK293 cells - 8 hour (AID 1224887); settings: RealTime-Glo luminescence, at 76.8 µM (top of the series)
Summary of the method: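 600 cells/well were plated with the nonlytic NanoLuc/prosubstrate reagent, pre-incubated 5 h, then given 23 nL of compound in DMSO. Incubation at 37 C for 40 h, with luminescence from viable-cell-reduced substrate read repeatedly from 0 h.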

[17] = qHTS RealTime-Glo MT Cell Viability Assay in HepG2 cells - 0 hour (AID 1224889); settings: RealTime-Glo luminescence, at 76.8 µM (top of the series); also: nearly all actives have a fitted effect of over 50% in size
Summary of the method: as §1

[18] = qHTS assay to identify small molecule antagonists of the estrogen receptor alpha (ER-alpha) signaling pathway using the BG1 cell line in the presence of 0.1 nM 17-beta-estradiol - cell viability counter screen (AID 1259241); settings: VM7Luc4E2 (BG1) viability, CellTiter-Fluor protease, 22 h; at 92.4 µM (top of the series); 0.1 nM estradiol agonist added; also: nearly all actives have a fitted effect of over 40% in size
Summary of the method: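 Cytotoxicity counter-screen: live-cell protease activity measured by fluorescence (30 min reagent step) in the same wells. Cells were VM7Luc4E2 with endogenous ER-alpha and ERE-driven luciferase, treated 22 hr at 37C alongside 0.1 nM 17beta-estradiol final.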

[19] = qHTS assay to identify small molecule antagonists of the androgen receptor (AR) signaling pathway using the MDA cell line in the presence of 0.5 nM R1881 - cell viability counter screen (AID 1259242); settings: MDA-kb2 viability, CellTiter-Fluor protease fluorescence, 16 h; at 92.4 µM (top of the series); also: nearly all actives have a fitted effect of over 45% in size
Summary of the method: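 MDA-kb2 cells (MMTV-luciferase, AR/GR responsive) were treated with compounds plus 0.5 nM R1881 (final) for 16 hr at 37C, 0% CO2. Viability was then read in the same wells as live-cell protease fluorescence (CellTiter-Fluor, 30 min).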

[20] = target: Nuclear receptor subfamily 1 group I member 3 (Homo sapiens) (UniProt Q14994); assay: qHTS assay to identify small molecule agonists of the constitutive androstane receptor (CAR) signaling pathway (AID 1224839); settings: HepG2 hCAR CYP2B6-luciferase, agonist mode, 24 h; at 92.4 µM (top of the series); also: nearly all actives have a fitted effect of over 15% in size
Summary of the method: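 Luminescent ONE-Glo read-out after 24 hr, 37 C exposure of double-stable HepG2-CYP2B6-hCAR reporter cells to a 15-point compound series, in the presence of 0.75 uM PK11195 (final).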
% is scaled to controls: 0 for no effect and ±100 for the full control effect.

Cc1ccc2ccccc2c1C
inactive: activity, negative = inhibition [1] 38.5% and 122% | activation [2] -0.966% | viability change, negative = cytotoxic [3] -0.136% and -1.39% | activity change, negative = cytotoxicity [4] 4.54% and 4.51% | activity, negative = inhibition [5] 38% and 10.5% | activity change, negative = cytotoxicity [6] -7.9% and -2.87% | Potency [7] | activity change, negative = cytotoxicity [8] 1.35% and 0.979% | activity change, negative = cytotoxic [9] 1.74% and 12.2% | activity change, negative = cytotoxic [10] -0.086% and -0.5% | activity change, negative = cytotoxicity [11] -6.96% and 1.72% | viability change, negative = cytotoxic [12] 1.98% and 1.42% | activity change, negative = cytotoxic [13] -0.287% and 0.58% | activity change, negative = cytotoxic [14] 1.37% and 1.87% | activity change, negative = cytotoxicity [15] -1.25% and 15.3% | activity change, negative = cytotoxicity [16] -11.1% and 1.19% | activity change, negative = cytotoxicity [17] 0.998% and 3.19% | activity change, negative = cytotoxicity [18] -1.19% and 3.44% | viability change, negative = cytotoxic [19] -0.151% and 0.959%

Cc1ccc(O)cc1C
inactive: activity, negative = inhibition [1] 28% and -2.79% | activation [2] -0.417% | viability change, negative = cytotoxic [3] 2.5% and 0.635% | activity change, negative = cytotoxicity [4] 2.51% and 6.83% | activity, negative = inhibition [5] 2.97% and 5.93% | activation [20] -0.787% and -1.05% | activity change, negative = cytotoxicity [6] 5.88% | Potency [7] | activity change, negative = cytotoxicity [8] -0.688% and 4.51% | activity change, negative = cytotoxic [9] 1.51% and 14.5% | activity change, negative = cytotoxic [10] -0.199% and 0.825% | activity change, negative = cytotoxicity [11] 2.45% and 11.5% | viability change, negative = cytotoxic [12] 4.83% and 6.29% | activity change, negative = cytotoxic [13] -0.415% and 1.5% | activity change, negative = cytotoxic [14] 0.933% and 1.84% | activity change, negative = cytotoxicity [15] 1.04% and 12.7% | activity change, negative = cytotoxicity [16] 3.69% and 2.83% | activity change, negative = cytotoxicity [17] 9.71% and 6.62% | activity change, negative = cytotoxicity [18] 2.89% and -2.59% | viability change, negative = cytotoxic [19] 3.25% and 5.2%

Oc1c(Cl)cc(Cl)cc1Cl
inactive: viability change, negative = cytotoxic [3] 5.44% and 18.3% | activity change, negative = cytotoxicity [4] 6.93% and 7.38% | activation [20] 10.4% | activity change, negative = cytotoxicity [6] -2.88% and -2.58% | Potency [7] | activity change, negative = cytotoxicity [8] -2.98% and 1.35% | activity change, negative = cytotoxic [9] -2.24% and -0.325% | activity change, negative = cytotoxic [10] 24.8% and -0.695% | activity change, negative = cytotoxicity [11] 1.69% and 2.62% | viability change, negative = cytotoxic [12] -13.5% and 1.3% | activity change, negative = cytotoxic [13] 8.83% and -0.769% | activity change, negative = cytotoxic [14] -9.89% and 1.35% | activity change, negative = cytotoxicity [15] 3.23% and 0.214% | activity change, negative = cytotoxicity [16] -7.99% and 2.52% | activity change, negative = cytotoxicity [17] -24.3% and -2.48% | activity change, negative = cytotoxicity [18] 3.9% and 4.94% | viability change, negative = cytotoxic [19] 1.25% and 1.56%
